Measured values: doi:10.1101/2020.02.12.946293
Results are given in words; binding and its absence hold for the method and conditions named. For some assays here: In cells and extracts the contact can be indirect. Some binding calls cover weakened binding; strength is not graded here. For some assays here: Sequences can lack the tags named with a protein.

T1: hMSH5 (human) (UniProt O43196)
T1 sequence: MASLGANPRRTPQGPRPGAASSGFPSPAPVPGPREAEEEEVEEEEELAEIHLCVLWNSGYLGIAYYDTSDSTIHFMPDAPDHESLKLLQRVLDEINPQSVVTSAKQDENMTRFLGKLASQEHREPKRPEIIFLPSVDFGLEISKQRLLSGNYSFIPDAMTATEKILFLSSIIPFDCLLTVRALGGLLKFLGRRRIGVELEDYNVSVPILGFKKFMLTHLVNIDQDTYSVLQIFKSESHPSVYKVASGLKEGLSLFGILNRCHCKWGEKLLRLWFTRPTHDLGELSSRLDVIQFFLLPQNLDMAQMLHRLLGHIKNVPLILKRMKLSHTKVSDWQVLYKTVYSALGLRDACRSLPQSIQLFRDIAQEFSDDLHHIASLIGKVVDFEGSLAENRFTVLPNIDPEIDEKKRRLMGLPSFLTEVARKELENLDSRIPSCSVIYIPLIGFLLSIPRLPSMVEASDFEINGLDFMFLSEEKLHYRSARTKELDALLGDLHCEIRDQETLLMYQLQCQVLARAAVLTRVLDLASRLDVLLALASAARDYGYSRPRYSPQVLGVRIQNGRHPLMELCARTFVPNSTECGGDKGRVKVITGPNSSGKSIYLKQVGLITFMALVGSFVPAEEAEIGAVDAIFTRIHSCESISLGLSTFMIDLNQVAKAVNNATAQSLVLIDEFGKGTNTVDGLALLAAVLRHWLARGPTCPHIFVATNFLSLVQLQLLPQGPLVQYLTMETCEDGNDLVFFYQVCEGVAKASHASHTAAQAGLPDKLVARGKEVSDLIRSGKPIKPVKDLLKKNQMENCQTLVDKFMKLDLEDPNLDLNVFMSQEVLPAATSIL

T2: hMSH5(G597A) (human) (UniProt O43196)
T2 sequence: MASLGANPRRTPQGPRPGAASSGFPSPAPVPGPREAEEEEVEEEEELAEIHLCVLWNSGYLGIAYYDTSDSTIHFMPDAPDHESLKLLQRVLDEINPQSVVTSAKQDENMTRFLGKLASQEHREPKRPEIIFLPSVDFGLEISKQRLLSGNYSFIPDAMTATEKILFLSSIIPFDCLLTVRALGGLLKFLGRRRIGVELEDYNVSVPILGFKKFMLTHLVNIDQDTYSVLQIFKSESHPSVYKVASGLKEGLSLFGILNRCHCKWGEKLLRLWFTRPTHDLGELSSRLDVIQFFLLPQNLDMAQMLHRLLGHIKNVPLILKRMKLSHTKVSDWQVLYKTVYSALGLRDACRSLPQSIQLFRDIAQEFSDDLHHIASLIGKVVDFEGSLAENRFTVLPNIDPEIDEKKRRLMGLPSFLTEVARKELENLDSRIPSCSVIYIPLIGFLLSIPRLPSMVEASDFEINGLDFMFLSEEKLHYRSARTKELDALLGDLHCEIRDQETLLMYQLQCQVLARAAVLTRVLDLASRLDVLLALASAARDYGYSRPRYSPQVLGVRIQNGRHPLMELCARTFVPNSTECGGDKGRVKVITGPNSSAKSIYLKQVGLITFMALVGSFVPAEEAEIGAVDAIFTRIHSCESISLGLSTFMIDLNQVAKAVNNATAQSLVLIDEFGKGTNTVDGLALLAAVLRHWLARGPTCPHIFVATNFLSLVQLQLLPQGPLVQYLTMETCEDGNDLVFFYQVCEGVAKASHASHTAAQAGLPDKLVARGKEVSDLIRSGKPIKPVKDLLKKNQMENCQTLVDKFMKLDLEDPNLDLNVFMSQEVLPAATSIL

T3: Rfc1-TAP (S. cerevisiae (endogenous in SK1 strains)) (UniProt P38630)
T3 sequence: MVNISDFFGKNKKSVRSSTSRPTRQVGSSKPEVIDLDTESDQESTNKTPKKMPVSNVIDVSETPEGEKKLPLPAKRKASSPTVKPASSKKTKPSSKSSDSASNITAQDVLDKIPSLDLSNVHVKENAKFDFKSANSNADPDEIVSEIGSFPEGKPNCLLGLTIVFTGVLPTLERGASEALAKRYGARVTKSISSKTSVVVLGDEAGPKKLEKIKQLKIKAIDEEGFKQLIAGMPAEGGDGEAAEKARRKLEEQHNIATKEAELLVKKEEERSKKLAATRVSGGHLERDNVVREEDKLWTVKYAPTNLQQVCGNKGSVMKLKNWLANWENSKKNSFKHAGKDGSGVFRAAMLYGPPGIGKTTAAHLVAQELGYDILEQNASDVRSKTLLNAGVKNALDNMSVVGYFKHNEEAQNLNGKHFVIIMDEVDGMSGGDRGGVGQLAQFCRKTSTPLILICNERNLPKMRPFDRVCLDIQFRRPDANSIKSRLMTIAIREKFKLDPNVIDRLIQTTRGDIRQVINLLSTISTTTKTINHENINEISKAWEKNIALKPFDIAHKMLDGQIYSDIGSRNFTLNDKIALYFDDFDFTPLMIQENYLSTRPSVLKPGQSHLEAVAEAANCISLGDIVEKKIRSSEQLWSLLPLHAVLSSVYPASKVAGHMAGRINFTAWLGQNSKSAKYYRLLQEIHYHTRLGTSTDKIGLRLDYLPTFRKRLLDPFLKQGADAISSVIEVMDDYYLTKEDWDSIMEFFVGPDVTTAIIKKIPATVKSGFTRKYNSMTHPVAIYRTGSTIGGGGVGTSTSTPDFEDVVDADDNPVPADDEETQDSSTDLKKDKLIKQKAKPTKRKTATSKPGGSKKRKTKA


Columns and labels:
[1] = target: T1, hMSH5 (human); assay: co-purification by tandem affinity
[2] = target: T2, hMSH5(G597A) (human); assay: co-purification by tandem affinity
[3] = target: T3, Rfc1-TAP (S. cerevisiae (endogenous in SK1 strains)); assay: co-IP

Binder | binding [1] | binding [2] | binding [3]
Mlh3-Myc (protein, UniProt Q12083 1-715) MSQHIRKLDSDVSERLKSQACTVSLASAVREIVQNSVDAHATTIDVMIDLPNLSFAVYDDGIGLTRSDLNILATQNYTSKIRKMNDLVTMKTYGYRGDALYSISNVSNLFVCSKKKDYNSAWMRKFPSKSVMLSENTILPIDPFWKICPWSRTKSGTVVIVEDMLYNLPVRRRILKEEPPFKTFNTIKADMLQILVMHPMISLNVQYTDKLRINTEVLFRSKNITEGLTKHQQMSQVLRNVFGAIIPPDMLKKVSLKFNEYQIEGIISKMPVGLKDLQFIYINGRRYADSAFQGYVDSLFQAQDFGEKGMSLLKTKSVGKPYRSHPVFILDVRCPQTIDDLLQDPAKKIVKPSHIRTIEPLIVKTIRSFLTFQGYLTPDKSDSSFEIVNCSQKTATLPDSRIQISKRNQVLNSKMKIARINSYIGKPAVNGCRINNSTINYEKIKNIRIDGQKSRLRNKLSSRPYDSGFTEDYDSIGKTITDFSISRSVLAKYEVINQVDKKFILIRCLDQSIHNCPLLVLVDQHACDERIRLEELFYSLLTEVVTGTFVARDLKDCCIEVDRTEADLFKHYQSEFKKWGIGYETIEGTMETSLLEIKTLPEMLTSKYNGDKDYLKMVLLQHAHDLKDFKKLPMDLSHFENYTSVDKLYWWKYSSCVPTVFHEILNSKACRSAVMFGDELTRQECIILISKLSRCHNPFECAHGRPSMVPIAELK | – | – | binds
Mlh1-HA (protein, UniProt P38920 1-769) MSLRIKALDASVVNKIAAGEIIISPVNALKEMMENSIDANATMIDILVKEGGIKVLQITDNGSGINKADLPILCERFTTSKLQKFEDLSQIQTYGFRGEALASISHVARVTVTTKVKEDRCAWRVSYAEGKMLESPKPVAGKDGTTILVEDLFFNIPSRLRALRSHNDEYSKILDVVGRYAIHSKDIGFSCKKFGDSNYSLSVKPSYTVQDRIRTVFNKSVASNLITFHISKVEDLNLESVDGKVCNLNFISKKSISPIFFINNRLVTCDLLRRALNSVYSNYLPKGNRPFIYLGIVIDPAAVDVNVHPTKREVRFLSQDEIIEKIANQLHAELSAIDTSRTFKASSISTNKPESLIPFNDTIESDRNRKSLRQAQVVENSYTTANSQLRKAKRQENKLVRIDASQAKITSFLSSSQQFNFEGSSTKRQLSEPKVTNVSHSQEAEKLTLNESEQPRDANTINDNDLKDQPKKKQKLGDYKVPSIADDEKNALPISKDGYIRVPKERVNVNLTSIKKLREKVDDSIHRELTDIFANLNYVGVVDEERRLAAIQHDLKLFLIDYGSVCYELFYQIGLTDFANFGKINLQSTNVSDDIVLYNLLSEFDELNDDASKEKIISKIWDMSSMLNEYYSIELVNDGLDNDLKSVKLKSLPLLLKGYIPSLVKLPFFIYRLGKEVDWEDEQECLDGILREIALLYIPDMVPKVDTSDASLSEDEKAQFINRKEHISSLLEHVLFPCIKRRFLAPRHILKDVVEIANLPDLYKVFERC | – | – | binds

The remaining lines, values ahead:

binding [1] | binding [2] | binding [3] | Binder
binds | binds | – | hMSH4 (protein, UniProt O15457 1-936) MLRPEISSTSPSAPAVSPSSGETRSPQGPRYNFGLQETPQSRPSVQVVSASTCPGTSGAAGDRSSSSSSLPCPAPNSRPAQGSYFGNKRAYAENTVASNFTFGASSSSARDTNYPQTLKTPLSTGNPQRSGYKSWTPQVGYSASSSSAISAHSPSVIVAVVEGRGLARGEIGMASIDLKNPQIILSQFADNTTYAKVITKLKILSPLEIIMSNTACAVGNSTKLFTLITENFKNVNFTTIQRKYFNETKGLEYIEQLCIAEFSTVLMEVQSKYYCLAAVAALLKYVEFIQNSVYAPKSLKICFQGSEQTAMIDSSSAQNLELLINNQDYRNNHTLFGVLNYTKTPGGSRRLRSNILEPLVDIETINMRLDCVQELLQDEELFFGLQSVISRFLDTEQLLSVLVQIPKQDTVNAAESKITNLIYLKHTLELVDPLKIAMKNCNTPLLRAYYGSLEDKRFGIILEKIKTVINDDARYMKGCLNMRTQKCYAVRSNINEFLDIARRTYTEIVDDIAGMISQLGEKYSLPLRTSFSSARGFFIQMTTDCIALPSDQLPSEFIKISKVKNSYSFTSADLIKMNERCQESLREIYHMTYMIVCKLLSEIYEHIHCLYKLSDTVSMLDMLLSFAHACTLSDYVRPEFTDTLAIKQGWHPILEKISAEKPIANNTYVTEGSNFLIITGPNMSGKSTYLKQIALCQIMAQIGSYVPAEYSSFRIAKQIFTRISTDDDIETNSSTFMKEMKEIAYILHNANDKSLILIDELGRGTNTEEGIGICYAVCEYLLSLKAFTLFATHFLELCHIDALYPNVENMHFEVQHVKNTSRNKEAILYTYKLSKGLTEEKNYGLKAAEVSSLPPSIVLDAKEITTQITRQILQNQRSTPEMERQRAVYHLATRLVQTARNSQLDPDSLRIYLSNLKKKYKEDFPRTEQVPEKTEE
binds | – | – | hMSH4(G685A) (protein, UniProt O15457 1-936) MLRPEISSTSPSAPAVSPSSGETRSPQGPRYNFGLQETPQSRPSVQVVSASTCPGTSGAAGDRSSSSSSLPCPAPNSRPAQGSYFGNKRAYAENTVASNFTFGASSSSARDTNYPQTLKTPLSTGNPQRSGYKSWTPQVGYSASSSSAISAHSPSVIVAVVEGRGLARGEIGMASIDLKNPQIILSQFADNTTYAKVITKLKILSPLEIIMSNTACAVGNSTKLFTLITENFKNVNFTTIQRKYFNETKGLEYIEQLCIAEFSTVLMEVQSKYYCLAAVAALLKYVEFIQNSVYAPKSLKICFQGSEQTAMIDSSSAQNLELLINNQDYRNNHTLFGVLNYTKTPGGSRRLRSNILEPLVDIETINMRLDCVQELLQDEELFFGLQSVISRFLDTEQLLSVLVQIPKQDTVNAAESKITNLIYLKHTLELVDPLKIAMKNCNTPLLRAYYGSLEDKRFGIILEKIKTVINDDARYMKGCLNMRTQKCYAVRSNINEFLDIARRTYTEIVDDIAGMISQLGEKYSLPLRTSFSSARGFFIQMTTDCIALPSDQLPSEFIKISKVKNSYSFTSADLIKMNERCQESLREIYHMTYMIVCKLLSEIYEHIHCLYKLSDTVSMLDMLLSFAHACTLSDYVRPEFTDTLAIKQGWHPILEKISAEKPIANNTYVTEGSNFLIITGPNMSAKSTYLKQIALCQIMAQIGSYVPAEYSSFRIAKQIFTRISTDDDIETNSSTFMKEMKEIAYILHNANDKSLILIDELGRGTNTEEGIGICYAVCEYLLSLKAFTLFATHFLELCHIDALYPNVENMHFEVQHVKNTSRNKEAILYTYKLSKGLTEEKNYGLKAAEVSSLPPSIVLDAKEITTQITRQILQNQRSTPEMERQRAVYHLATRLVQTARNSQLDPDSLRIYLSNLKKKYKEDFPRTEQVPEKTEE
